## Cleaved PARP in drug-treated melanoma cells

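The test systems are human melanoma cell lines, treated with two drugs together for 72 h and then stained and imaged. Values are the share of nuclei positive for cleaved PARP as a percentage of the same share in the DMSO control: 100 is the control level, higher means more apoptosis. Concentrations were fixed for each drug; these are the higher of two levels. These are primary screening values without error estimates. Basal and induced levels differ widely between cell lines.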
An unselected part of the screen is shown.
An entry leaves out what has no value listed here.

Drugs:
enzastaurin: Cn1cc(C2=C(c3cn(C4CCN(Cc5ccccn5)CC4)c4ccccc34)C(=O)NC2=O)c2ccccc21 at 4 µM
CX-4945: O=C(O)c1ccc2c(c1)nc(Nc1cccc(Cl)c1)c1ccncc12 at 2 µM
BMS-536924: Cc1cc(N2CCOCC2)cc2[nH]c(-c3c(NC[C@@H](O)c4cccc(Cl)c4)cc[nH]c3=O)nc12 at 1 µM
erlotinib: C#Cc1cccc(Nc2ncnc3cc(OCCOC)c(OCCOC)cc23)c1 at 4 µM
crizotinib: C[C@@H](Oc1cc(-c2cnn(C3CCNCC3)c2)cnc1N)c1c(Cl)ccc(F)c1Cl at 1 µM
cisplatin: N.N.[Cl][Pt][Cl] at 8 µM
YM155: COCC[n+]1c2c(n(Cc3cnccn3)c1C)C(=O)c1ccccc1C2=O at 0.002 µM
GW0742: Cc1cc(SCc2sc(-c3ccc(C(F)(F)F)c(F)c3)nc2C)ccc1OCC(=O)O at 10 µM
bortezomib: CC(C)C[C@H](NC(=O)[C@H](Cc1ccccc1)NC(=O)c1cnccn1)B(O)O at 0.005 µM
JZL184: O=C(Oc1ccc([N+](=O)[O-])cc1)N1CCC(C(O)(c2ccc3c(c2)OCO3)c2ccc3c(c2)OCO3)CC1 at 5 µM
VX-702: NC(=O)c1ccc(N(C(N)=O)c2c(F)cccc2F)nc1-c1ccc(F)cc1F at 2 µM

Drugs: YM155 + erlotinib
WM1745: 216

Drugs: cisplatin + erlotinib
WM1745: 124

Drugs: crizotinib + JZL184
501mel: 254

Drugs: bortezomib + JZL184
501mel: 1920

Drugs: VX-702 + enzastaurin
WM1745: 128

Drugs: crizotinib + CX-4945
WM1745: 157

Drugs: BMS-536924 + crizotinib
WM1745: 205

Drugs: BMS-536924 + VX-702
WM1745: 149

Drugs: GW0742 + CX-4945
501mel: 77.4

Drugs: erlotinib + BMS-536924
WM1745: 278

Drugs: GW0742 + cisplatin
501mel: 86.9

Drugs: VX-702 + CX-4945
WM1745: 135

Drugs: VX-702 + erlotinib
WM1745: 198

Drugs: cisplatin + VX-702
WM1745: 114

Drugs: bortezomib + enzastaurin
WM1745: 466

Drugs: BMS-536924 + bortezomib
WM1745: 416

Drugs: GW0742 + BMS-536924
501mel: 239
WM1745: 195

Drugs: erlotinib + CX-4945
WM1745: 240

Drugs: erlotinib + enzastaurin
WM1745: 466

Drugs: GW0742 + VX-702
501mel: 39.8

The last 2 entries again:

- erlotinib + enzastaurin | WM1745: 466
- GW0742 + VX-702 | 501mel: 39.8

Source: doi:10.1371/journal.pone.0140310, primary screening data, rounded.